Results are given in words; binding and its absence hold for the method and conditions named. Binding can be weak; no strength is given.

Protein sequences, listed by entry. Tags and fused reporters are not part of them.
UniProt Q9GZZ9: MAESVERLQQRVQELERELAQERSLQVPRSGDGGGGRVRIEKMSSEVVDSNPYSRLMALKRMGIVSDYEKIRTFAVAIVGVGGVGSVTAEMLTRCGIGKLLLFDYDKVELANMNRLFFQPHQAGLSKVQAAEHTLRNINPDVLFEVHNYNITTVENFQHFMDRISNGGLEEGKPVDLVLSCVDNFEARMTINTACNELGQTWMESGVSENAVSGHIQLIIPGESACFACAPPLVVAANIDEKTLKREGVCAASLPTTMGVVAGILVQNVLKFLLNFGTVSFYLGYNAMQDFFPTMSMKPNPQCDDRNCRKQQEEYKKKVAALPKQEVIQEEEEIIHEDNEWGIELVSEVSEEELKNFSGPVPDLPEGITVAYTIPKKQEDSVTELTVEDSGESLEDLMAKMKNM

The test concerns the target T1, GST-UBA5 (UniProt Q9GZZ9 1-404).
T1 construct: also called E1-like enzyme for ufmylation; source: recombinant, E. coli, purified on Glutathione Sepharose 4B (GST kept)
The experiment in a line: pull-down; GST-UBA5 bound to Glutathione Sepharose 4B, incubated 20 min at 4°C with purified proteins in 20 mM Tris-Cl pH 7.5, 150 mM NaCl, 1 mM EDTA, 1 mM DTT, 0.05% Nonidet P-40; NuPAGE and Coomassie staining; both purified.

Regarding “UFM1 R81C (recombinant) (from UniProt P61960-1)”, the binding result was “binds”.

The values are drawn from PMC6022668, “Biallelic UFM1 and UFC1 mutations expand the essential role of ufmylation in brain development” (Brain, 2018).
